Measurements published in PubChem BioAssay AID651660 (Broad Institute, 2012).
“And” between values parts separate entries of the source, which are not always exact repeats. Equal values may be shown once. Screen size: about 1,900 compounds; about 15 (0.8%) were called active.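 The calls were made as follows: active = every replicate shows at least 50% inhibition; inconclusive = mean inhibition at least 50% but some replicate below; inactive = the rest.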 This is one part of the list.

Amino acid sequences for entries named in this document (tags omitted). A change or cut given only in a name is not applied to a line headed by its entry.
UniProt P43351: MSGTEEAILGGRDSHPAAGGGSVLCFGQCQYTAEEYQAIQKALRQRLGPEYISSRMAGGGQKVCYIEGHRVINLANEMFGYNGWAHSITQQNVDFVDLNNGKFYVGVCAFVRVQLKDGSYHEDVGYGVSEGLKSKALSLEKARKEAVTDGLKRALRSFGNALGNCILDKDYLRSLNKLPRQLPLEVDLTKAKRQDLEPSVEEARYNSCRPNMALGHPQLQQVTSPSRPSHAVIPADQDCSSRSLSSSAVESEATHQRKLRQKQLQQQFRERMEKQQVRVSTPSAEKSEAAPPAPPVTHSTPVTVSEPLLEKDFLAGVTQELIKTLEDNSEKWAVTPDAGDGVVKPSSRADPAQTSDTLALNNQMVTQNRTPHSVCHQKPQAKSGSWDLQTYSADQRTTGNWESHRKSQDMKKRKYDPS

target: DNA repair protein RAD52 homolog (Homo sapiens) (UniProt P43351); assay: RAD52 ssDNA annealing inhibitors, primary screen, biochemical, FRET, single point (AID 651660); conditions: Recombinant RAD52 ssDNA annealing, FRET fluorescence, 30 min; at 18.7 µM; hits give high values;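 also: 0% = median of neutral control wells and 100% = median of positive control wells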

Row | Compound | inhibition
1 | CC(=O)Nc1nc(CCC(C)C)cc2c1c(=O)oc1ccccc12 | inactive: -7.69%
2 | c1ccc(Cn2nnc3cnccc32)cc1 | inactive: -0.564%
3 | CCOc1ccc(C(=O)/C=C/c2cc(OC)c(OC)c(OC)c2)cc1 | inactive: 1.6%
4 | CCOc1cc2c(cc1OCC)C(c1ccccc1)N(c1ccc(C(=O)O)cc1)C(=O)C2 (stereo not given) | inactive: -2.63%
5 | O=C(CCN1CCC(c2ccccc2)C1)c1ccc2c(c1)OCCO2 (stereo not given) | inactive: -11%
6 | Nc1ccn([C@@H]2O[C@H](CO)[C@@H](O)[C@@H]2O)c(=O)n1 | inactive: -3.65%
7 | COc1cc2c(cc1OC)-c1cc(NC3CCCCCC3)nc(=O)n1CC2 | inactive: 5.06%
8 | NC(N)=N/N=C/c1cccc(Cl)c1Cl | inactive: 18.4%
9 | COc1ccc(NC(=O)CC2C(=O)N(C)C(=S)N2Cc2ccncc2)cc1 (stereo not given) | inactive: -3.48%
10 | COc1ccc(CC(=O)c2c(O)cc(O)cc2O)cc1OC | inactive: -0.069%
11 | COc1ccc(CCN=CC2=C(O)CC(C)(C)CC2=O)cc1 | inactive: -6.68%
12 | C=CCNC(=O)c1ccc(-c2cccc([N+](=O)[O-])c2)o1 | inactive: -3.04%
13 | CC(C)CCC1(CCNC(C)c2cccs2)CCOC(C)(C)C1 (stereo not given) | inactive: 12.3%
14 | C[C@@H]1C[C@H]2[C@@H]3C[C@H](F)C4=CC(=O)C=C[C@]4(C)[C@@]3(F)[C@@H](O)C[C@]2(C)[C@@]1(O)C(=O)COC(=O)C(C)(C)C | inactive: -1.88%
15 | O=c1[nH]cnc2c1ncn2[C@@H]1O[C@H](CO)[C@@H](O)[C@H]1O | inactive: -0.469%
16 | CCc1nc2ccccc2n1Cc1ccc(OC)c(OC)c1 | inactive: 4.94%
17 | O=C1C(=O)N2C(=C1C(=O)N1CCCCCC1)c1ccccc1CC21CCCC1 | inactive: -1.31%
18 | O=C(CN1C(=O)c2ccccc2C1=O)Nc1cccc([N+](=O)[O-])c1 | inactive: -5.56%
19 | O=C(O)C[C@@H](O)C(=O)O | inactive: -9.88%
20 | CC1(C)CC(CNCCC(c2ccc(F)cc2)c2ccco2)CCO1 (stereo not given) | inactive: -2.26%
21 | O=c1ccc2ccccc2o1 | inactive: -5.43%
22 | CC(=O)Oc1ccc2occ(/C=N/c3cc(=O)[nH]c(=S)[nH]3)c(=O)c2c1 | inactive: -4.77%
23 | COc1ccc(C(=O)Nc2cccc3cccnc23)cc1OC | inactive: -4.56%
24 | CN(C)CCCN1c2ccccc2Sc2ccc(Cl)cc21 | active: 68.5%

Row | Compound | inhibition
25 | COc1ccc(Cc2noc(CN(C)CC3(N4CCOCC4)CCCCC3)n2)cc1OC | inactive: -1.7%
26 | Cc1cccc(-c2ncc(CN3CCN(CC(C)C)C(CCO)C3)cn2)c1 (stereo not given) | inactive: -4.02%
27 | COC1CCN(Cc2cn(Cc3ccccc3)nc2-c2cc3ccccc3o2)CC1 | inactive: 3.29%
28 | COc1ccc(C2C3=C(OC(C)=O)c4ccccc4C3=Nc3c2c(=O)n(C)c(=O)n3C)cc1 (stereo not given) | inactive: 0.172%
29 | Cc1ccccc1-c1nn(-c2ccc(F)cc2F)cc1CNCCN(C)C | inactive: 28.7%
30 | O=C1NC(=O)C(c2ccccc2)(c2ccccc2)N1 | inactive: -3.63% and inactive: -5.42%
31 | Cc1ccc2c(c1)C(O)(C1COC(C)(C)CC1=O)C(=O)N2C (stereo not given) | inactive: -1%
32 | O=C1NCC2=C1C(c1ccccc1)Nc1ccccc1N2 (stereo not given) | inactive: -23.8%
33 | c1ccc(CNc2ncnc3nc[nH]c23)cc1 | inactive: -12.3%
34 | Fc1ccc(-c2cc(-c3ccccc3)nc(-n3cccn3)n2)cc1 | inactive: 4.31%
35 | CC(C)Cc1nc(NCCN2CCOCC2)c(C#N)c2c1COC(C)(C)C2 | inactive: -1.59%
36 | O=c1nc2cccc3c2=c(/c1=C(\O)c1ccccc1)c1ccccc1c3=O | inactive: -39.8%
37 | CN1CCCC(OC(=O)c2ccc3c(c2)OCCO3)C1 (stereo not given) | inactive: -6.43%
38 | Cc1c2c(nc3c(C)cccc13)OC(C)C2 (stereo not given) | inactive: -9.22%
39 | COC(=O)c1ccccc1NC(=O)c1ccc(COc2ccc3c(c2)CCC3)cc1 | inactive: -2.33%
40 | COc1ccccc1OCC(O)COC(N)=O (stereo not given) | inactive: 1.94%
41 | CN(C)C(=O)Oc1ccc[n+](C)c1 | inactive: -8.1%
42 | CC(=O)CCc1c(C)c2cccc(C)c2[nH]c1=O | inactive: -2.19%
43 | COc1cc2c(cc1OC)C(Cc1ccc(O)cc1)N(C)CC2 (stereo not given) | inactive: 9.02%
44 | COc1ccc2[nH]c(=O)c(CNC3CCCCC3)cc2c1 | inactive: -12.3%
45 | O=C(c1ccc(O)cc1)c1ccc(O)cc1O | inactive: -19.8%
46 | COc1ccccc1C(=O)c1cc2ccc(O)cc2oc1=O | inactive: -18%
47 | Cc1ccc(S(=O)(=O)Oc2ccccc2/C=N/N=C(N)N)cc1 | inactive: 12.8%
48 | CNc1nc(N(C)C)nc(N(C)C)n1 | inactive: -6.93%

Row | Compound | inhibition
49 | COc1ccc(C(=O)/C=C/c2cc(C(=O)O)cc3c2OCOC3)c(O)c1 | inactive: -15.9%
50 | CCc1cc2c(=O)c(-c3ccc(F)cc3)c(C)oc2cc1OCC(=O)O | inactive: -10.9%
51 | O=C(O)CP(=O)(O)O | inactive: 6.02%
52 | CCOC(=O)Cn1c(C)cc(=O)c2ccccc21 | inactive: 3.5%
53 | CC(=O)OCC(=O)[C@H]1CC[C@H]2[C@@H]3CCC4=CC(=O)CC[C@]4(C)[C@H]3CC[C@]12C | inactive: -0.53%
54 | C#C[C@]1(O)CC[C@H]2[C@@H]3CCC4=CC(=O)CC[C@@H]4[C@H]3CC[C@@]21CC | inactive: -2.68%
55 | O=c1[nH]c(Cc2ccccc2)nc2c1oc1ccccc12 | inactive: -1.73%
56 | COc1cc2nc(-c3ccccc3)nc(N3CCCC3)c2cc1OC | inactive: 6.11%
57 | O=C(NO)c1ccccc1O | inactive: -6.23%
58 | CC(C)C[C@H]1C(=O)N2CCC[C@H]2[C@]2(O)O[C@](NC(=O)[C@@H]3C=C4c5cccc6[nH]c(Br)c(c56)CC4N(C)C3)(C(C)C)C(=O)N12 (stereo not given in full) | inactive: 9.18%
59 | CC(=O)OCC(=O)[C@@]1(OC(C)=O)[C@@H](C)C[C@H]2[C@@H]3C[C@H](F)C4=CC(=O)C=C[C@]4(C)[C@@]3(F)[C@@H](O)C[C@@]21C | inactive: 3.77%
60 | CC(N=C(NC#N)Nc1ccncc1)C(C)(C)C (stereo not given) | inactive: -2.86%
61 | S=C(NCc1ccccc1)NCc1cccc(CNC(=S)NCc2ccccc2)c1 | inactive: 1.07%
62 | COc1ccc(CN(C)CCc2ccccn2)cc1OC | inactive: -2.45%
63 | Oc1[nH]c2ccccc2c1N=Nc1ccccc1 | inactive: -19.7%
64 | C=CCn1c(N2CCCCCC2)nc2c1c(=O)n(C)c(=O)n2C | inactive: -1.01%
65 | COc1ccc(O)c(N)c1 | inactive: -44.6%
66 | COc1ccc(C(=O)NCc2cccnc2)cc1 | inactive: -9.74%
67 | COc1cc2c3c(c1)C(C)CC(C)(C)N3C(=O)C2=O (stereo not given) | inactive: 1.43%
68 | S=C(c1ccc2c(c1)OCO2)N1CCCCC1 | inactive: -4.41%
69 | CC(=O)Nc1ccccc1O | inactive: -6.34%
70 | O=c1cc(Cn2ccnc2)c2cc3c(cc2o1)CCC3 | inactive: -1.32%
71 | CCOC(=O)c1cnc2ccc(C(=O)OC)cc2c1Nc1ccc2c(c1)OCCO2 | inactive: 0.862%
72 | O=c1oc2c(CN3CCN(CCO)CC3)c(O)ccc2cc1-c1ccccn1 | inactive: -38.1%

Arranged by count of non-hydrogen atoms (descending): some entries from above
Row | Compound | inhibition
71 | CCOC(=O)c1cnc2ccc(C(=O)OC)cc2c1Nc1ccc2c(c1)OCCO2 | inactive: 0.862%
67 | COc1cc2c3c(c1)C(C)CC(C)(C)N3C(=O)C2=O (stereo not given) | inactive: 1.43%
68 | S=C(c1ccc2c(c1)OCO2)N1CCCCC1 | inactive: -4.41%

(further entries)

Row | Compound | inhibition
73 | c1ccc(CN(CC2=NCCN2)c2ccccc2)cc1 | inactive: -3% and inactive: 4.73%
74 | Cc1cccc(NC(=O)c2cc3ccccc3o2)c1 | inactive: 2.23%
75 | O=C(NCCN1CCN(c2ccccc2)CC1)c1cccc(Br)c1 | inactive: 2.9%
76 | CC(C)CN1CCN(Cc2ccc3ncccc3c2)CC1CCO (stereo not given) | inactive: 2.42%
77 | CCOc1ccc(CCn2c(-c3ccco3)nc3ccccc3c2=O)cc1OCC | inactive: -6.6%
78 | COc1ccc(/C=C2\CCn3c2nc2cc(C(=O)O)ccc2c3=O)cc1OC | inactive: -4.24%
79 | COc1ccc(S(=O)(=O)N2CCN(C(=O)COc3ccc4c(C)cc(=O)oc4c3)CC2)cc1 | inactive: -4%
80 | COc1cc(/C=C/C(=O)N2CCCC2)cc(OC)c1OC | inactive: -3.32%
81 | COc1cc2cc(C)nc(Cc3cccc4ccccc34)c2cc1OC | inactive: 23.2%
82 | CC(=O)C1=C(O)C(=O)N(Cc2cccnc2)C1c1ccc(C(C)C)cc1 (stereo not given) | inactive: 0.222%
83 | CCN(CC)CCNC(=O)c1ccc(N)cc1 | inactive: 5.09%
84 | C[N+](C)(C)CCCC(=O)c1ccc2c(c1)OCO2 | inactive: -9.63%
85 | OC[C@@H](O)[C@@H](O[C@H]1O[C@H](CO)[C@@H](O)[C@H](O)[C@H]1O)[C@H](O)[C@@H](O)CO | inactive: 2.34%
86 | COC(=O)c1ccccc1OCCOCCOc1cccc2ccc(C)nc12 | inactive: -4.32%
87 | O=C(CCCN1C(=O)/C(=C\c2cccc(Br)c2)SC1=S)Nc1cccnc1 | inactive: -2.49%
88 | COCC(C)NC(=O)c1ccc(CN2CCc3ccccc3C2)cc1 (stereo not given) | inactive: -0.269%
89 | C[C@@H]1CCC[C@H](C)N1NC(=O)c1ccc(Cl)c(S(N)(=O)=O)c1 | inactive: -0.341%
90 | CC(C)C(CCN1C(=O)CCC1=O)C1CCOC(C)(C)C1 (stereo not given) | inactive: 3.26%
91 | Cc1ccc2[nH]c3c(=O)n(CCCN4CCN(C)CC4)cnc3c2c1 | inactive: -15.8%
92 | COc1ccc(C(=O)[C@H]2[C@H]3C(=O)N(c4ccccc4)C(=O)[C@H]3C3C=CC=NN32)cc1 (stereo not given in full) | inactive: -45.1%
93 | CC(C)[C@H](NC(=O)[C@@H]1CSCN1C(=O)OC(C)(C)C)C(=O)NCC1CCC(C(=O)O)CC1 (stereo not given in full) | inactive: -15.1%
94 | Cc1ccc2c(c1)c1c3n2CCCN(Cc2ccccc2)C3CCC1 (stereo not given) | inactive: 3.99%
95 | CCc1c(C)c2ccc(OCC(=O)OC(C)C)c(C)c2oc1=O | inactive: -3.63%

Rewritten in markdown: entries from further up

| Row | Compound | inhibition |
| --- | --- | --- |
| 73 | c1ccc(CN(CC2=NCCN2)c2ccccc2)cc1 | inactive: -3% and inactive: 4.73% |
| 74 | Cc1cccc(NC(=O)c2cc3ccccc3o2)c1 | inactive: 2.23% |
